Reference: paper PMC10645587
These are yes or no findings as the source states them, for the method shown. In cells and extracts the contact can be indirect. Some entries that bind do so weakly or less than the wild type. For some of these results: Sequences can lack the tags named with a protein. Blank lines part the entries; values can stand above or below the binder they belong to.

Tests used:
[1] = target: Epidermal growth factor receptor (EGFR), endogenous (human (endogenous in A549 and HCC827)) (UniProt P00533); experiment: co-IP; endogenous proteins in A549 and HCC827 cell lysates (150 mM NaCl, 1% NP-40, 50 mM Tris-HCl pH 8.0, protease inhibitor); primary antibody on Dynal magnetic beads overnight at 4 °C, five washes with PBS, western blot
[2] = target: Flag-tagged EGFR (WT) (UniProt P00533); experiment: co-IP; A549 cells transfected with Flag-EGFR or LAMC2-His vectors (against the endogenous partner), A549 and HEK-293T cells co-transfected with both; lysates (150 mM NaCl, 1% NP-40, 50 mM Tris-HCl pH 8.0, protease inhibitor); primary antibody on Dynal magnetic beads overnight at 4 °C, five washes with PBS, western blot
[3] = target: Epidermal growth factor receptor (EGFR), endogenous (human (endogenous in A549 and HCC827)) (UniProt P00533); experiment: as above

binding [1]: binds | binding [2]: binds
B1: Laminin-5γ-2 (LAMC2), endogenous (protein, UniProt Q13753 22-1193)
chain: TSRREVCDCNGKSRQCIFDRELHRQTGNGFRCLNCNDNTDGIHCEKCKNGFYRHRERDRCLPCNCNSKGSLSARCDNSGRCSCKPGVTGARCDRCLPGFHMLTDAGCTQDQRLLDSKCDCDPAGIAGPCDAGRCVCKPAVTGERCDRCRSGYYNLDGGNPEGCTQCFCYGHSASCRSSAEYSVHKITSTFHQDVDGWKAVQRNGSPAKLQWSQRHQDVFSSAQRLDPVYFVAPAKFLGNQQVSYGQSLSFDYRVDRGGRHPSAHDVILEGAGLRITAPLMPLGKTLPCGLTKTYTFRLNEHPSNNWSPQLSYFEYRRLLRNLTALRIRATYGEYSTGYIDNVTLISARPVSGAPAPWVEQCICPVGYKGQFCQDCASGYKRDSARLGPFGTCIPCNCQGGGACDPDTGDCYSGDENPDIECADCPIGFYNDPHDPRSCKPCPCHNGFSCSVMPETEEVVCNNCPPGVTGARCELCADGYFGDPFGEHGPVRPCQPCQCNNNVDPSASGNCDRLTGRCLKCIHNTAGIYCDQCKAGYFGDPLAPNPADKCRACNCNPMGSEPVGCRSDGTCVCKPGFGGPNCEHGAFSCPACYNQVKIQMDQFMQQLQRMEALISKAQGGDGVVPDTELEGRMQQAEQALQDILRDAQISEGASRSLGLQLAKVRSQENSYQSRLDDLKMTVERVRALGSQYQNRVRDTHRLITQMQLSLAESEASLGNTNIPASDHYVGPNGFKSLAQEATRLAESHVESASNMEQLTRETEDYSKQALSLVRKALHEGVGSGSGSPDGAVVQGLVEKLEKTKSLAQQLTREATQAEIEADRSYQHSLRLLDSVSRLQGVSDQSFQVEEAKRIKQKADSLSSLVTRHMDEFKRTQKNLGNWKEEAQQLLQNGKSGREKSDQLLSRANLAKSRAQEALSMGNATFYEVESILKNLREFDLQVDNRKAEAEEAMKRLSYISQKVSDASDKTQQAERALGSAAADAQRAKNGAGEALEISSEIEQEIGSLNLEANVTADGALAMEKGLASLKSEMREVEGELERKELEFDTNMDAVQMVITEAQKVDTRAKNAGVTIQDTLNTLDGLLHLMDQPLSVDEEGLVLLEQKLSRAKTQINSQLRPMMSELEERARQQRGHLHLLETSIDGILADVKNLENIRDNLPPGCYNTQALEQQ

binding [3]: binds | binding [2]: binds
B2: His-tagged LAMC2 (WT) (protein, UniProt Q13753 22-1193)
chain: B1 chain
